Data as given in paper doi:10.1101/2023.03.07.531564.
These are yes or no findings as the source states them, for the method shown. In cells and extracts the contact can be indirect. Here binding means that the protein was enriched with, or labelled near, the bait; the list need not be complete.

Chains of the proteins cited; added tags and fusions are not shown.
UniProt Q9EPK5: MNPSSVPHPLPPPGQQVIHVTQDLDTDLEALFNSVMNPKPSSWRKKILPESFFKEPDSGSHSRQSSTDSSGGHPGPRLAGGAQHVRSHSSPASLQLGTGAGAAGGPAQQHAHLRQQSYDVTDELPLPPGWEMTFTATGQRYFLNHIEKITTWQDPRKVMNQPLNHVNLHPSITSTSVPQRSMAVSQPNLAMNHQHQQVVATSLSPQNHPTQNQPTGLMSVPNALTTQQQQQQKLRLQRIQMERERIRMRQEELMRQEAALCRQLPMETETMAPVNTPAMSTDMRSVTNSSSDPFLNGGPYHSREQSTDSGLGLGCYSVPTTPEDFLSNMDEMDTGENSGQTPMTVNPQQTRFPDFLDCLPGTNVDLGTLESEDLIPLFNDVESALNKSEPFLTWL
UniProt P46938: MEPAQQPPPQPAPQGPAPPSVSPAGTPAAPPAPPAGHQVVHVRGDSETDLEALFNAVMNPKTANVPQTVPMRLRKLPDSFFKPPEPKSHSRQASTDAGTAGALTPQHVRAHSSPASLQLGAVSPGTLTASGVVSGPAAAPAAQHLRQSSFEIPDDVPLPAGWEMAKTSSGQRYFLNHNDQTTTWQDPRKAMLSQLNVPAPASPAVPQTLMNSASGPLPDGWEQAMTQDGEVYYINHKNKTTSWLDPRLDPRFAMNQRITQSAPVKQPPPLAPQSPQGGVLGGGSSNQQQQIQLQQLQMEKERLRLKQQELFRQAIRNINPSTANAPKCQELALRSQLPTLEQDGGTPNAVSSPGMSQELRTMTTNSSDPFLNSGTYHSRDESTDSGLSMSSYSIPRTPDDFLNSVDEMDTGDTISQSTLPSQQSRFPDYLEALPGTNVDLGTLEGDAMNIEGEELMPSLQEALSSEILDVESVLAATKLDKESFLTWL

Experiments:
[1] = biological target: 3xFLAG.TAZ (flagged mouse Taz, WW-domain-containing transcription regulator 1) (mouse) (UniProt Q9EPK5); assay: affinity purification with mass spectrometry
[2] = biological target: 3xFLAG.YAP (flagged mouse Yap, Yes-associated protein) (mouse) (UniProt P46938); assay: affinity purification with mass spectrometry

Row | Binder | binding [1] | binding [2]
1 | NUP107 (protein, UniProt Q8BH74 1-926) MDRSGFGGMSSPVIRDAEVTRTARKHSAHKRVLIQANQEDNFGTATPRSQIIPRTPSSFRQPFVTPSSRSLLRHPDISYILGTEGRSPRHTQSSGYLGNLSMVTNLDDSNWAAAFSSQRLGLYTNTEHHSMTEDVNLSTVMLREDDPGEAASMSMFSDFLHSFLKHSSTTVFDLVEEYENICGSQVNILSKIVSRATPGLQKFSKTASMLWLLQQEMVTWRLLASLYRDRIQSSLEEENMFAIAGINASEKMVVETLFQRDSLVRQSQLVVDWLESIAKDEIGEFSDNIEFYAKSVYWENTLHSLKQRQLLSHMGSTRPLVTELDPDAPIRQKLPLDDLDREDEVRLLKYLFTLIRAGMTEEAQRLCKRCGQAWRAATLEGWKLYHDPNVNGGTELEPVEGNPYRRIWKISCWRMAEDELFNKYERAIYAALSGNLKQLLPVCDTWEDTVWAYFRVMVDSLVEQEIRTSVMTQDDSEELPREYMEANWTLEKVFEELQATDKKRVLEENQEHYHIVQKFLILGDVDGLMDEFSKWLSKSGSSLPGHLLRFMTHLILFLRTLGLQTKEEVSIEVLKTYIQLLISEKHTSLIAFYTCHLPQDLAVAQYALFLEGVTEFEQRHQCLELAKEADLDVATITKTVVENICKKDNGEFSHHDLAPSLDTGTTEEDRLKIDVIDWLVFDPAQRAEALRQGNAIMRKFLALKKHEAAKEVFVKIPQDSIAEIYNQWEEQGMESPLPAEDDNAIREHLCIRAYLEAHETFNEWFKHMNSAPQKPTLLSQATFTEKVAYEHREKKYEMDHNIWKGHLDALTADVKEKMYNVLLFVDGGWMVDVREDAEDDPERTHQMVLLRKLCLPMLCFLLHTILHSTGQYQECLQLADMVSSERHKLYLVFSKEELRKLLQKLRESSLMLLDQGLDPLGYEIQS | binds | 
2 | NUP133 (protein, UniProt Q8R0G9 1-1155) MFPSVSSPRTPGPGTRRGPLVGIGPTSTPRASRRGLSLGSAVNSPVLFSPAGRRSSVSSRGTPTRIFPHHSISESVNYDVRVFGSSLPVKIMEALTMAEADEQLSVHVDEGGWACLVCTEKLLIWKIAVSPVTKLSVCKELQLPPSDFHGSADLVALSYAATSGEVHSVQAVSVMVATKEGSIRYWPSLAREDTYSDTCVDLGGEKMCRFLTAVQGGSFILSSVGSQLVRLIPESSGKIHQHVLPQGQGMLSGIGRRVSSLFGILSPTSDLMLASVLWDRGGSSFYTLTSSNISKWELDDSSEKQVHSWDVHRTLKESITDAVWGSESNYEAIKEGVNIQYLDLKQNCDGLLILAAAWHLGDSPCLVYYSVITVEDNGNQMSDAVTVEVTQYNPPFQSEDLIACRLMVPNFSSQMTYLYMENAVFVCSTGTGKFSLPQEKIVFDTQGDGILGAGSCAGVPILFSRNSGLVSVTPRENVSLLAEDLEESLTSSVGGRGSESMVFETTTKNETVAHEDKTKLLKAAFLQYCRKDLGRAQIMADELFSSHTDLDSDPELDKAVTQISVDLIDDYPASDPRWAESVPQEAPGLSNTSLIILHQLEDKMKAHCLLVDFLHQVGLFRRLSSYPIRGTPMSTRLLLCEHAEKLSAAITLKNHHSRLPDLVNSAILLALNKRECEVPNSLTPADVFFREVSQVDTICECLLEHEEQVLREVALVSQEWAEVAIDVNTVLKDMLQAATHYRLNKSSMYSQEEVLGKEPEYVPWTATSGPSGIRTAVMRQHGIILKMVYPQADSKLRNVVMEQLVALIDCFLDSYVSQLKSLEKSSDQERYSSLEVEYLQKRSELLSPLLTLGQYPWAASLAEKYCDFDILVQMCEQTDNQARLQRYMTQFADQNFSDFLFRWYLEKGKRGKLLSQPISQHGQLANFLQAHEHLSWLHEINSQELEKAHTTLLGLANMETRYFAKKKTLLGLSKLAALASDISEDRLQEKIEAMAEQERFLLHQETLPEQLLTERQLSLSAMPVLTAPQLISLYICDENRRANEYDFKKALDLLEYIDEEEDVSIDDLKLEILCRALQRDDWSGSDGKDDPIEVSKDSVFVKILQKLIKDGIQLSEYLPEVTDLLRAEQLGSLKSNSYFEFVLKANYEYYVQGQM | binds | binds
3 | XPO5 (protein, UniProt Q924C1 1-1204) MEMEQVNALCEELVKAVTVMMDPSSTQRYRLEALKFCEEFKEKCPICVPCGLKLAEKTQIAIVRHFGLQILEHVVKFRWNSMSRLEKVYLKNSVMELIANGTLRILEEENHIKDVLSRIVVEMIKREWPQHWPDMLMELDTLFRQGETQRELVMFILLRLAEDVVTFQTLPTQRRRDIQQTLTQNMERILNFLLNTLQENVNKYQQMKTDSSQEAEAQANCRVSVAALNTLAGYIDWVSLNHITAENCKLVETLCLLLNEQELQLGAAECLLIAVSRKGKLEDRKRLMILFGDVAMHYILSAAQTADGGGLVEKHYLFLKRLCQVLCALGNLLCALLALDANIQTPINFGMYLESFLAFTTHPSQFLRSSTHMTWGALFRHEVLSRDPALLAVIPKYLRASMTNLVKMGFPSKTDSPSCEYSRFDFDSDEDFNAFFNSSRAQHGEVVRCVCRLDPKTSFQMAAEWLKYQLSASIDTGPVNSCSTAGTGEGGFCSIFSPSYVQWEAMTFFLESVINQMFRTLDKEELPVSDGIELLQLVLNFEIKDPLVLSCVLTNVSALFPFVTYKPAFLPQVFSKLFSFVTFESVGESKAPRTRAVRNVRRHACSSINKMCRDYPDLVLPNFDMLYSHVKQLLSNELLLTQMEKCALMEALVLVSNQFKDYERQKLFLEELMAPVVNIWLSEEMCRALSDIDSFIAYVGADLKSCDPAVEDPCGLNRARMSFCVYSILGVMRRTSWPSDLEEAKAGGFVVGYTPSGNPIFRNPCTEQILRLLDNLLALVRTHNTLYTPEMLTKMAEPFTKALDIVESEKTAILGLPQPLLEFNDHPVYRTTLERMQRFFGILYENCYHILGKAGPSMQQDFYTVEDLASQLLGSAFVNLNNIPDFRLRSMLRVFVKPLVLFCPSEHYETLISPILGPLFTYLHMRLSQKWHVINQRSILCGEDEIAEDNPESQEMLEEQLVRMLTREAMDLIMACCVSKKTADHTAAPTADGDDEEMMATEVAPSSVVELTDLGKCLMKHEDVCTALLITAFNSLTWKDTLSCQRATTQLCWPLLKQVMSGTLLADAVTWLFTSVLKGLQMHGQHDGCMASLVHLAFQIYEALRPRYLEIRAVMEQIPEINKESLDQFDCKLLNPSLQKAADKRRKDHFKRLIAGCIGKPLGEQFRKEVHIKNLPWLFKKPKPMLETEVLDSEEGGLATIFEP | binds | binds
4 | large tumor suppressor kinase 1 (Lats1) (protein, UniProt Q8BYR2 1-1129) MKRGEKPEGYRQMRPKTFPASNYPGSSRQMLQEIRESLRNLSKPSDASKAEHNLNKMSTEDPRQVRNPPKFGTHHKALQEIRNSLLPFANETSSSRSPSEVNPQMFQDLQAAGFDEDMVIQALQKTNNRSIEAAVEFISKMSYQDPRREQMSAAAARPINATMKPGNVQHSINRKQSWKGSKESLVPQRHGPSLGENVVYRSESPNSQADVGRPLSGSGIAAFAQAHPSNGQRVNPPPPPQVRSVTPPPPPRGQTPPPRGTTPPPPSWEPSSQTKRYSGNMEYVISRISPVPPGAWQEGYPPPPLTTSPMNPPSQAQRAISSVPVGRQPIIMQSTSKFNFTPGRPGVQNGGGQSDFIVHQNVPTGSVTRQPPPPYPLTPANGQSPSALQTGASAAPPSFANGNVPQSMMVPNRNSHNMELYNINVPGLQTAWPQSSSAPAQSSPSGGHEIPTWQPNIPVRSNSFNNPLGSRASHSANSQPSATTVTAITPAPIQQPVKSMRVLKPELQTALAPTHPSWMPQPVQTVQPTPFSEGTASSVPVIPPVAEAPSYQGPPPPYPKHLLHQNPSVPPYESVSKPCKDEQPSLPKEDDSEKSADSGDSGDKEKKQITTSPITVRKNKKDEERRESRIQSYSPQAFKFFMEQHVENVLKSHQQRLHRKKQLENEMMRVGLSQDAQDQMRKMLCQKESNYIRLKRAKMDKSMFVKIKTLGIGAFGEVCLARKVDTKALYATKTLRKKDVLLRNQVAHVKAERDILAEADNEWVVRLYYSFQDKDNLYFVMDYIPGGDMMSLLIRMGIFPENLARFYIAELTCAVESVHKMGFIHRDIKPDNILIDRDGHIKLTDFGLCTGFRWTHDSKYYQSGDHPRQDSMDFSNEWGDPSNCRCGDRLKPLERRAARQHQRCLAHSLVGTPNYIAPEVLLRTGYTQLCDWWSVGVILFEMLVGQPPFLAQTPLETQMKVINWQTSLHIPPQAKLSPEASDLIIKLCRGPEDRLGKNGADEIKAHPFFKTIDFSSDLRQQSASYIPKITHPTDTSNFDPVDPDKLWSDGSEEENISDTLNGWYKNGKHPEHAFYEFTFRRFFDDNGYPYNYPKPIEYEYIHSQGSEQQSDEDDQHTSSDGNNRDLVYV | binds | 
